Results from PMC10543712.
These are yes or no findings as the source states them, for the method shown. In cells and extracts the contact can be indirect. Some entries that bind do so weakly or less than the wild type. Tags and fused reporters may be left off the sequences shown.

By UniProt entry, the sequences of proteins in these tests, tags left out.
UniProt P63094: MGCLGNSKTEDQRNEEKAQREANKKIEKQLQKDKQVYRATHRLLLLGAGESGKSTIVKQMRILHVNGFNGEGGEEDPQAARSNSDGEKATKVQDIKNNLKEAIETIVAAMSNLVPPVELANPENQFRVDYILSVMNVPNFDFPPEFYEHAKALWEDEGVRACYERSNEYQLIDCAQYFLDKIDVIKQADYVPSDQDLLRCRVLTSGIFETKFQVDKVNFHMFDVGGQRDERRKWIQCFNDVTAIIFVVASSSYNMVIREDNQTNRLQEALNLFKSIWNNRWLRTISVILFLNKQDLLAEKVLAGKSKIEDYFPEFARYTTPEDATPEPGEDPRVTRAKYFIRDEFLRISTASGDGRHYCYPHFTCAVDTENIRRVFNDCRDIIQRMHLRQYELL

T1: FLAG-tagged CRY1 (UniProt P97784)
T1 sequence: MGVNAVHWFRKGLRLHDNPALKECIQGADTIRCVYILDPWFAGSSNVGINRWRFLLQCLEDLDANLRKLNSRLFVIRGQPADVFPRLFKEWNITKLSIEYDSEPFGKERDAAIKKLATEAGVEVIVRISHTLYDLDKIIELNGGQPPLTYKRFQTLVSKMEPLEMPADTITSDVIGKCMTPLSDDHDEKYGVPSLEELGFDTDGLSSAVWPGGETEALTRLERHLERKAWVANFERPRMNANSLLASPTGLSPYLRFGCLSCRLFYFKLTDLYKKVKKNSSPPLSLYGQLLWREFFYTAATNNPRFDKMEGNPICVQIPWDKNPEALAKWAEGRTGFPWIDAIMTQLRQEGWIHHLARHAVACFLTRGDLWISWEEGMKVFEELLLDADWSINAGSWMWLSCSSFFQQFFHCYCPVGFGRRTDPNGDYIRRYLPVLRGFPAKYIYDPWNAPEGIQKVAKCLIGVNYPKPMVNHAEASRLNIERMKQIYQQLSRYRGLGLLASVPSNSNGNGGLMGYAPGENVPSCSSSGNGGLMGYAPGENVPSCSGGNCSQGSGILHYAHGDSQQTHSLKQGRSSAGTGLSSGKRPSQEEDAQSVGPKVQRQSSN


Legend:
FLAG-tagged CRY1 = target: T1, FLAG-tagged CRY1; assay: co-IP; HA-tagged Gαs and FLAG-tagged CRY1 (or Cry1Δ11) coexpressed in HEK 293T cells; about 1 mg whole cell lysate (150 mM NaCl, 1% NP-40, 2 mM EDTA, 50 mM Tris pH 8.0) with 1 μg HA or FLAG Ab overnight at 4°C, protein G agarose; immunoblot with HA or FLAG Ab
HA-tagged Gαs = HA-tagged Gαs (UniProt P63094); assay: as above

Row | binding (FLAG-tagged CRY1) | binding (HA-tagged Gαs) | Molecule
1 | binds |  | HA-tagged Gαs (from UniProt P63094 1-394)
2 |  | binds | FLAG-tagged CRY1 (protein, UniProt P97784 1-606) MGVNAVHWFRKGLRLHDNPALKECIQGADTIRCVYILDPWFAGSSNVGINRWRFLLQCLEDLDANLRKLNSRLFVIRGQPADVFPRLFKEWNITKLSIEYDSEPFGKERDAAIKKLATEAGVEVIVRISHTLYDLDKIIELNGGQPPLTYKRFQTLVSKMEPLEMPADTITSDVIGKCMTPLSDDHDEKYGVPSLEELGFDTDGLSSAVWPGGETEALTRLERHLERKAWVANFERPRMNANSLLASPTGLSPYLRFGCLSCRLFYFKLTDLYKKVKKNSSPPLSLYGQLLWREFFYTAATNNPRFDKMEGNPICVQIPWDKNPEALAKWAEGRTGFPWIDAIMTQLRQEGWIHHLARHAVACFLTRGDLWISWEEGMKVFEELLLDADWSINAGSWMWLSCSSFFQQFFHCYCPVGFGRRTDPNGDYIRRYLPVLRGFPAKYIYDPWNAPEGIQKVAKCLIGVNYPKPMVNHAEASRLNIERMKQIYQQLSRYRGLGLLASVPSNSNGNGGLMGYAPGENVPSCSSSGNGGLMGYAPGENVPSCSGGNCSQGSGILHYAHGDSQQTHSLKQGRSSAGTGLSSGKRPSQEEDAQSVGPKVQRQSSN
